# Measurements reported in the supplement of paper PMC8728848.
# The other results are listed elsewhere or left out.
# Assays:
# Test in all cases: glycan array binding signal (z-score within array); higher = stronger binding
# Conditions in all cases: glycan notation: IUPAC condensed, linker removed
# [1] = biological target: GlcNAc(b1-3)Gal(b1-4)GlcNAc(b1-3)Gal(b1-4)GlcNAc(b1-3)GalNAc
# Method in brief: (§1)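 Columns mapping to the same glycan were averaged after glycan names were converted to IUPAC-condensed notation. The data come from 3228 arrays in the Consortium for Functional Glycomics database, limited to those with an available protein sequence. Binding is reported as a within-array Z-score averaged across arrays of one protein sequence and across linkers.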
# [2] = biological target: GlcNAc(b1-3)Gal(b1-4)GlcNAc(b1-3)GalNAc
# Method in brief: as §1
# [3] = biological target: GlcNAc(b1-3)Gal(b1-4)GlcNAc(b1-3)[GlcNAc(b1-3)Gal(b1-4)GlcNAc(b1-3)]GalNAc
# Method in brief: as §1
# [4] = biological target: GlcNAc(b1-3)Gal(b1-4)GlcNAc(b1-6)[Gal(b1-3)]GalNAc
# Method in brief: as §1
# [5] = biological target: GlcNAc(b1-3)Gal(b1-4)GlcNAc(b1-6)[GlcNAc(b1-3)Gal(b1-3)]GalNAc
# Method in brief: as §1
# [6] = biological target: GlcNAc(b1-3)Gal(b1-4)GlcNAc(b1-6)[GlcNAc(b1-3)]Gal(b1-4)GlcNAc
# Method in brief: as §1
# GlcNAc(b1-3)GalNAc = biological target: GlcNAc(b1-3)GalNAc
# Method in brief: as §1
# GlcNAc(b1-3)Man = biological target: GlcNAc(b1-3)Man
# Method in brief: as §1
# [7] = biological target: GlcNAc(b1-3)[GlcNAc(b1-4)][GlcNAc(b1-6)]GlcNAc
# Method in brief: as §1
# [8] = biological target: GlcNAc(b1-3)[GlcNAc(b1-6)]Gal(b1-4)GlcNAc
# Method in brief: as §1
# [9] = biological target: GlcNAc(b1-3)[GlcNAc(b1-6)]GalNAc
# Method in brief: as §1
# [10] = biological target: GlcNAc(b1-4)Gal(b1-4)GlcNAc
# Method in brief: as §1
# GlcNAc(b1-4)GlcNAc = biological target: GlcNAc(b1-4)GlcNAc
# Method in brief: as §1
# [11] = biological target: GlcNAc(b1-4)GlcNAc(b1-4)GlcNAc
# Method in brief: as §1
# [12] = biological target: GlcNAc(b1-4)GlcNAc(b1-4)GlcNAc(b1-4)GlcNAc(b1-4)GlcNAc
# Method in brief: as §1
# [13] = biological target: GlcNAc(b1-4)GlcNAc(b1-4)GlcNAc(b1-4)GlcNAc(b1-4)GlcNAc(b1-4)GlcNAc
# Method in brief: as §1
# [14] = biological target: GlcNAc(b1-4)[GlcNAc(b1-6)]GalNAc
# Method in brief: as §1
# [15] = biological target: GlcNAc(b1-6)Gal(b1-4)GlcNAc
# Method in brief: as §1
# GlcNAc(b1-6)GalNAc = biological target: GlcNAc(b1-6)GalNAc
# Method in brief: as §1
# [16] = biological target: GlcNAc6S(b1-3)Gal(b1-4)GlcNAc
# Method in brief: as §1
# Kdn(a2-3)Gal(b1-3)GalNAc = biological target: Kdn(a2-3)Gal(b1-3)GalNAc
# Method in brief: as §1
# Kdn(a2-3)Gal(b1-3)GlcNAc = biological target: Kdn(a2-3)Gal(b1-3)GlcNAc
# Method in brief: as §1
# Kdn(a2-3)Gal(b1-4)Glc = biological target: Kdn(a2-3)Gal(b1-4)Glc
# Method in brief: as §1
# Kdn(a2-3)Gal(b1-4)GlcNAc = biological target: Kdn(a2-3)Gal(b1-4)GlcNAc
# Method in brief: as §1
# [17] = biological target: Kdn(a2-3)Gal(b1-4)[Fuc(a1-3)]GlcNAc
# Method in brief: as §1
# Kdn(a2-6)Gal(b1-4)GlcNAc = biological target: Kdn(a2-6)Gal(b1-4)GlcNAc
# Method in brief: as §1
# [18] = biological target: Man(a1-2)Man(a1-2)Man(a1-3)Man
# Method in brief: as §1
# [19] = biological target: Man(a1-2)Man(a1-2)Man(a1-6)[Man(a1-3)]Man
# Method in brief: as §1
# Man(a1-2)Man(a1-3)Man = biological target: Man(a1-2)Man(a1-3)Man
# Method in brief: as §1
# [20] = biological target: Man(a1-2)Man(a1-3)[Man(a1-2)Man(a1-6)]Man
# Method in brief: as §1
# [21] = biological target: Man(a1-2)Man(a1-3)[Man(a1-2)Man(a1-6)]Man(a1-6)[Man(a1-2)Man(a1-2)Man(a1-3)]Man
# Method in brief: as §1
# [22] = biological target: Man(a1-2)Man(a1-3)[Man(a1-2)Man(a1-6)]Man(a1-6)[Man(a1-2)Man(a1-2)Man(a1-3)]Man(b1-4)GlcNAc(b1-4)GlcNAc
# Method in brief: as §1
# [23] = biological target: Man(a1-2)Man(a1-3)[Man(a1-6)]Man(a1-6)[Man(a1-2)Man(a1-3)]Man(b1-4)GlcNAc(b1-4)GlcNAc
# Method in brief: as §1
# [24] = biological target: Man(a1-2)Man(a1-6)[Man(a1-3)]Man(a1-6)[Man(a1-2)Man(a1-2)Man(a1-3)]Man
# Method in brief: as §1
# [25] = biological target: Man(a1-2)Man(a1-6)[Man(a1-3)]Man(a1-6)[Man(a1-2)Man(a1-2)Man(a1-3)]Man(b1-4)GlcNAc(b1-4)GlcNAc
# Method in brief: as §1
# Man(a1-3)[Man(a1-6)]Man = biological target: Man(a1-3)[Man(a1-6)]Man
# Method in brief: as §1
# [26] = biological target: Man(a1-3)[Man(a1-6)]Man(a1-6)[Man(a1-2)Man(a1-3)]Man(b1-4)GlcNAc(b1-4)GlcNAc
# Method in brief: as §1
# [27] = biological target: Man(a1-3)[Man(a1-6)]Man(a1-6)[Man(a1-3)]Man
# Method in brief: as §1
# [28] = biological target: Man(a1-3)[Man(a1-6)]Man(a1-6)[Man(a1-3)]Man(b1-4)GlcNAc(b1-4)GlcNAc
# Method in brief: as §1
# [29] = biological target: Man(a1-3)[Man(a1-6)]Man(b1-4)GlcNAc(b1-4)GlcNAc
# Method in brief: as §1
# [30] = biological target: Man(a1-3)[Man(a1-6)]Man(b1-4)GlcNAc(b1-4)[Fuc(a1-6)]GlcNAc
# Method in brief: as §1
# Man(a1-6)Man = biological target: Man(a1-6)Man
# Method in brief: as §1
# Man(b1-4)GlcNAc = biological target: Man(b1-4)GlcNAc
# Method in brief: as §1
# MurNAc(b1-4)GlcNAc = biological target: MurNAc(b1-4)GlcNAc
# Method in brief: as §1
# Neu5Ac(a2-3)Gal = biological target: Neu5Ac(a2-3)Gal
# Method in brief: as §1
binder,measurement,setting,value
LF82 (Escherichia coli) (protein) ADWGPCRTASGDPFIFVTSFTKNIQNPTDNVTGQTYPDFYQWALGDKYSGVCECPSPNPTEARPTLYKTESTLAAGHNSTYFKITNNLEVSTRVYIANVGNVQVPFINKSNSQPGRECDQPTFGWTTGSKGQLSLYIAKPFVGEQNIPQTIIVSVFGTKKENVYSSVPISQVLLSGKVTVTQGCELAAGTSLDIDFGEYQAHDFKGRTGQPPQNVQKIQKELTFNCTNISDGVHIYLSLEGTPNAAYPSAISLGNADVGAVIEDGKGNILKPNDSNSLLEMNPGSLYEYVKRKVTTTITAYPVSTTGKLPAAGDYSGVATMHVELDGGGGGGGGGGATTDLGAKGTLKFSLKISQGHHHHHH,glycan array binding signal (z-score),[1],0.656
same,glycan array binding signal (z-score),[2],-0.433
same,glycan array binding signal (z-score),[3],-1.02
same,glycan array binding signal (z-score),[4],-0.509
same,glycan array binding signal (z-score),[5],0.416
same,glycan array binding signal (z-score),[6],-0.441
same,glycan array binding signal (z-score),GlcNAc(b1-3)GalNAc,1.39
same,glycan array binding signal (z-score),GlcNAc(b1-3)Man,0.644
same,glycan array binding signal (z-score),[7],-0.52
same,glycan array binding signal (z-score),[8],-0.184
same,glycan array binding signal (z-score),[9],-0.992
same,glycan array binding signal (z-score),[10],-0.28
same,glycan array binding signal (z-score),GlcNAc(b1-4)GlcNAc,0.06
same,glycan array binding signal (z-score),[11],-0.274
same,glycan array binding signal (z-score),[12],-0.044
same,glycan array binding signal (z-score),[13],-1.17
same,glycan array binding signal (z-score),[14],-0.29
same,glycan array binding signal (z-score),[15],-0.158
same,glycan array binding signal (z-score),GlcNAc(b1-6)GalNAc,0.085
same,glycan array binding signal (z-score),[16],-0.173
same,glycan array binding signal (z-score),Kdn(a2-3)Gal(b1-3)GalNAc,1.18
same,glycan array binding signal (z-score),Kdn(a2-3)Gal(b1-3)GlcNAc,0.209
same,glycan array binding signal (z-score),Kdn(a2-3)Gal(b1-4)Glc,-0.955
same,glycan array binding signal (z-score),Kdn(a2-3)Gal(b1-4)GlcNAc,2.1
same,glycan array binding signal (z-score),[17],-0.197
same,glycan array binding signal (z-score),Kdn(a2-6)Gal(b1-4)GlcNAc,1.03
same,glycan array binding signal (z-score),[18],0.307
same,glycan array binding signal (z-score),[19],-0.62
same,glycan array binding signal (z-score),Man(a1-2)Man(a1-3)Man,-0.318
same,glycan array binding signal (z-score),[20],0.3
same,glycan array binding signal (z-score),[21],0.665
same,glycan array binding signal (z-score),[22],-0.7
same,glycan array binding signal (z-score),[23],0.664
same,glycan array binding signal (z-score),[24],-0.197
same,glycan array binding signal (z-score),[25],0.244
same,glycan array binding signal (z-score),Man(a1-3)[Man(a1-6)]Man,0.337
same,glycan array binding signal (z-score),[26],-0.492
same,glycan array binding signal (z-score),[27],-1.06
same,glycan array binding signal (z-score),[28],-0.805
same,glycan array binding signal (z-score),[29],-0.032
same,glycan array binding signal (z-score),[30],-0.39
same,glycan array binding signal (z-score),Man(a1-6)Man,-0.439
same,glycan array binding signal (z-score),Man(b1-4)GlcNAc,0.456
same,glycan array binding signal (z-score),MurNAc(b1-4)GlcNAc,-0.235
same,glycan array binding signal (z-score),Neu5Ac(a2-3)Gal,0.191

# 2 records picked at random from the list so far, as already listed:
binder,measurement,setting,value
LF82 (Escherichia coli) (protein) ADWGPCRTASGDPFIFVTSFTKNIQNPTDNVTGQTYPDFYQWALGDKYSGVCECPSPNPTEARPTLYKTESTLAAGHNSTYFKITNNLEVSTRVYIANVGNVQVPFINKSNSQPGRECDQPTFGWTTGSKGQLSLYIAKPFVGEQNIPQTIIVSVFGTKKENVYSSVPISQVLLSGKVTVTQGCELAAGTSLDIDFGEYQAHDFKGRTGQPPQNVQKIQKELTFNCTNISDGVHIYLSLEGTPNAAYPSAISLGNADVGAVIEDGKGNILKPNDSNSLLEMNPGSLYEYVKRKVTTTITAYPVSTTGKLPAAGDYSGVATMHVELDGGGGGGGGGGATTDLGAKGTLKFSLKISQGHHHHHH,glycan array binding signal (z-score),[19],-0.62
same,glycan array binding signal (z-score),[2],-0.433
